Laboratory results as given in US20160377635A1, “Measurement of Oxytocin and Vasopressin” (Martin-Protean LLC, priority 2013, published 2016).

Legend:
[1] = plasma oxytocin and vasopressin by LC-MS/MS, with or without redox perturbation; design: species or system human; settings: healthy individuals, method of the invention
[2] = cited from earlier work

CC[C@H](C)[C@@H]1NC(=O)[C@H](Cc2ccc(O)cc2)NC(=O)[C@@H](N)CSSC[C@@H](C(=O)N2CCC[C@H]2C(=O)N[C@@H](CC(C)C)C(=O)NCC(N)=O)NC(=O)[C@H](CC(N)=O)NC(=O)[C@H](CCC(N)=O)NC1=O [oxytocin]
oxytocin detected in plasma [1]: 100-10,000 pg/mL
human plasma oxytocin concentration ([2]; immunoassays on supernatant of acetone precipitation of plasma): 1 to 10 pg/mL
human plasma oxytocin concentration ([2]; immunoassays): 1 to 500 pg/mL

Where two headings read alike, the source gives them in different places.
